# Reference: publication PMC10696399
# Sequences of proteins named here, by UniProt entry; tags and fusion partners are left off.
# UniProt Q00610: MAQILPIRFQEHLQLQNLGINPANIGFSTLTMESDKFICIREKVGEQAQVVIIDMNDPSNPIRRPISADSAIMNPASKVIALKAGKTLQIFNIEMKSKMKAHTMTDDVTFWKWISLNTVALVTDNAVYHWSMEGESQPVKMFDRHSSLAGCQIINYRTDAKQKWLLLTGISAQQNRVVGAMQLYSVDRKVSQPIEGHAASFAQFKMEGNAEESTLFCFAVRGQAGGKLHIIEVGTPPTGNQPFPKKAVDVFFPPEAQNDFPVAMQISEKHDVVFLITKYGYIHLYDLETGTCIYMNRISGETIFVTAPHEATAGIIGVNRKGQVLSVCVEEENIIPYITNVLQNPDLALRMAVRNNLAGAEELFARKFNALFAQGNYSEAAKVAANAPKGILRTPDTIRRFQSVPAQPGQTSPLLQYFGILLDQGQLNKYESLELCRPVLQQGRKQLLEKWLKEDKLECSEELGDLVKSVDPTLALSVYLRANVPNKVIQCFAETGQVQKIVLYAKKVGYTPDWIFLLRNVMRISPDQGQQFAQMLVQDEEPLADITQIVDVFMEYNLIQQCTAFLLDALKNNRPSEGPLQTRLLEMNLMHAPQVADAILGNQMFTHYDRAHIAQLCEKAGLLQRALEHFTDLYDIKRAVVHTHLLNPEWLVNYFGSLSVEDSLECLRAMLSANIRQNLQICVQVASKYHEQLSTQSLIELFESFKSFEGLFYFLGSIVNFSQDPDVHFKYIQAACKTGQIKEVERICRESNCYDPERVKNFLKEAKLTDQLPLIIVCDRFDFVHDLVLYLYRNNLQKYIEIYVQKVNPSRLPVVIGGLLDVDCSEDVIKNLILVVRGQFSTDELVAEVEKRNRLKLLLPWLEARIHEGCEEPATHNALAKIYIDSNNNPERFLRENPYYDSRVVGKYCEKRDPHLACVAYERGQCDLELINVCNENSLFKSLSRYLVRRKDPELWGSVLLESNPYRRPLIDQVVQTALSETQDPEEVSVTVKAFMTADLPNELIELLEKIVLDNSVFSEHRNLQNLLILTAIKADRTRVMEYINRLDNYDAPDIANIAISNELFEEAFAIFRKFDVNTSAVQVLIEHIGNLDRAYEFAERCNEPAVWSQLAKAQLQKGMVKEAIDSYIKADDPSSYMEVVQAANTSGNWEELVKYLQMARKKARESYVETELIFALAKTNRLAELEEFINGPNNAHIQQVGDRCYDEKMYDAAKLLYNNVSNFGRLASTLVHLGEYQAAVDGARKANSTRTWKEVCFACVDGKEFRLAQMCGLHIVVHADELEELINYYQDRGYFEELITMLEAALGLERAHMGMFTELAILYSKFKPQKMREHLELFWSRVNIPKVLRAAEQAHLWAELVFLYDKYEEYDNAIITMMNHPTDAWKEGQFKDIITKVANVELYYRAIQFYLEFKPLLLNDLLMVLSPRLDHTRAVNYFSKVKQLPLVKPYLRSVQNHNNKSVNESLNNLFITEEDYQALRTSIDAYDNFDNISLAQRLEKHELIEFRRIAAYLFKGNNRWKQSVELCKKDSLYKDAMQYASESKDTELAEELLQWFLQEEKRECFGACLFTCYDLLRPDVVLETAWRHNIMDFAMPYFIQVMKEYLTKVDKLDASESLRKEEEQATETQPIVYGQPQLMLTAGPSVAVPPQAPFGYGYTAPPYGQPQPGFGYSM
# B1: AP-1β (endogenous) (protein, UniProt Q10567 1-949)
# chain: MTDSKYFTTTKKGEIFELKAELNSDKKEKKKEAVKKVIASMTVGKDVSALFPDVVNCMQTDNLELKKLVYLYLMNYAKSQPDMAIMAVNTFVKDCEDPNPLIRALAVRTMGCIRVDKITEYLCEPLRKCLKDEDPYVRKTAAVCVAKLHDINAQLVEDQGFLDTLKDLISDSNPMVVANAVAALSEIAESHPSSNLLDLNPQSINKLLTALNECTEWGQIFILDCLANYMPKDDREAQSICERVTPRLSHANSAVVLSAVKVLMKFMEMLSKDLDYYGTLLKKLAPPLVTLLSAEPELQYVALRNINLIVQKRPEILKHEMKVFFVKYNDPIYVKLEKLDIMIRLASQANIAQVLAELKEYATEVDVDFVRKAVRAIGRCAIKVEQSAERCVSTLLDLIQTKVNYVVQEAIVVIKDIFRKYPNKYESVIATLCENLDSLDEPEARAAMIWIVGEYAERIDNADELLESFLEGFHDESTQVQLQLLTAIVKLFLKKPTETQELVQQVLSLATQDSDNPDLRDRGYIYWRLLSTDPVAAKEVVLAEKPLISEETDLIEPTLLDELICYIGTLASVYHKPPSAFVEGGRGVVHKSLPPRTASSESAESPETAPTGAPPGEQPDVIPAQGDLLGDLLNLDLGPPVSGPPLATSSVQMGAVDLLGGGLDSLMGDEPEGIGGTNFVAPPTAAVPANLGAPIGSGLSDLFDLTSGVGTLSGSYVAPKAVWLPAMKAKGLEISGTFTRQVGSISMDLQLTNKALQVMTDFAIQFNRNSFGLAPAAPLQVHAPLSPNQTVEISLPLSTVGSVMKMEPLNNLQVAVKNNIDVFYFSTLYPLHILFVEDGKMDRQMFLATWKDIPNENEAQFQIRDCPLNAEAASSKLQSSNIFTVAKRNVEGQDMLYQSLKLTNGIWVLAELRIQPGNPSCTDLELSLKCRAPEVSQHVYQAYETILKN
# B2: TAB2 (endogenous) (protein, UniProt Q9NYJ8 1-693)
# chain: MAQGSHQIDFQVLHDLRQKFPEVPEVVVSRCMLQNNNNLDACCAVLSQESTRYLYGEGDLNFSDDSGISGLRNHMTSLNLDLQSQNIYHHGREGSRMNGSRTLTHSISDGQLQGGQSNSELFQQEPQTAPAQVPQGFNVFGMSSSSGASNSAPHLGFHLGSKGTSSLSQQTPRFNPIMVTLAPNIQTGRNTPTSLHIHGVPPPVLNSPQGNSIYIRPYITTPGGTTRQTQQHSGWVSQFNPMNPQQVYQPSQPGPWTTCPASNPLSHTSSQQPNQQGHQTSHVYMPISSPTTSQPPTIHSSGSSQSSAHSQYNIQNISTGPRKNQIEIKLEPPQRNNSSKLRSSGPRTSSTSSSVNSQTLNRNQPTVYIAASPPNTDELMSRSQPKVYISANAATGDEQVMRNQPTLFISTNSGASAASRNMSGQVSMGPAFIHHHPPKSRAIGNNSATSPRVVVTQPNTKYTFKITVSPNKPPAVSPGVVSPTFELTNLLNHPDHYVETENIQHLTDPTLAHVDRISETRKLSMGSDDAAYTQALLVHQKARMERLQRELEIQKKKLDKLKSEVNEMENNLTRRRLKRSNSISQIPSLEEMQQLRSCNRQLQIDIDCLTKEIDLFQARGPHFNPSAIHNFYDNIGFVGPVPPKPKDQRSIIKTPKTQDTEDDEGAQWNCTACTFLNHPALIRCEQCEMPRHF
# Tests used:
# [1] = molecular target: T1, FLAG-tagged SopD2 (S. Typhimurium strain SL1344) (UniProt Q8ZQC8); assay: affinity purification with mass spectrometry
# T1 sequence: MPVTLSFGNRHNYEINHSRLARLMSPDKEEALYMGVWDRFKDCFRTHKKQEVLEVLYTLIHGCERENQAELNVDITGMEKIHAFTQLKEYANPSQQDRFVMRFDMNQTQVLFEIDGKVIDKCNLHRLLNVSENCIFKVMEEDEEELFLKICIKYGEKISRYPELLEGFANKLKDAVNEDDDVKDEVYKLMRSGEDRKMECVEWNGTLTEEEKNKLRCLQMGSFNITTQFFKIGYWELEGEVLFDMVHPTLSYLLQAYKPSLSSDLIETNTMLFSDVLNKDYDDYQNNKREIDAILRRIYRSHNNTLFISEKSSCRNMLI
# [2] = molecular target: T2, FLAG-tagged SpvB (S. Typhimurium strain SL1344) (UniProt P21454); assay: affinity purification with mass spectrometry
# T2 sequence: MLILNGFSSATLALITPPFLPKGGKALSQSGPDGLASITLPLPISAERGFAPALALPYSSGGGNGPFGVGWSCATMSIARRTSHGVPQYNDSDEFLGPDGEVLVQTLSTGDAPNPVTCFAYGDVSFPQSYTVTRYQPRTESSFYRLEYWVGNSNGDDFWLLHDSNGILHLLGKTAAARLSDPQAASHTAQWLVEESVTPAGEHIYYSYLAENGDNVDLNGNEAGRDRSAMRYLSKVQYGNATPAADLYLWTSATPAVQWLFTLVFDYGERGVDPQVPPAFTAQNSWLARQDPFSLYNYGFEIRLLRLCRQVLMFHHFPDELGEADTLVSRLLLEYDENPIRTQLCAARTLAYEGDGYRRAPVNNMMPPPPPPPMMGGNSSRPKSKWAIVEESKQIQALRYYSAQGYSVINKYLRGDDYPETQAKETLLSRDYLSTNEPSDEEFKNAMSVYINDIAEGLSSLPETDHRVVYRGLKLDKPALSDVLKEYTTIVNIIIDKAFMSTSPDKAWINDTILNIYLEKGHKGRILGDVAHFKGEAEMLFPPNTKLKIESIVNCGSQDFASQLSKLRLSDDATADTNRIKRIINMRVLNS
Molecule,binding [1],binding [2]
AP-1γ (endogenous) (human (endogenous in HEK293T)),no binding,binds
AP-1μ (endogenous) (human (endogenous in HEK293T)),no binding,binds
clathrin heavy chain (endogenous) (from UniProt Q00610 1-1675),no binding,binds
B1,no binding,binds
B2,–,binds

# Results are given in words; binding and its absence hold for the method and conditions named. In cells and extracts the contact can be indirect. These calls come from enrichment with a bait or labelling near it, and not all partners need be listed. For part of these data: A no says only that the protein was not detected with the bait. Tags and fused reporters may be left off the sequences shown.
